In the supplement of paper PMC10689618:
Where a name gives a salt, the structure may show the parent alone. The list shows a part of the results. Single values are uncertain, as repeats are few or missing.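 Labelled rat cortical synaptosomes were engulfed by primary human fetal astrocytes. Engulfment equaled a red/green ratio, corrected for calcein live-cell signal and normalized to the plate median. Compounds were toxic when calcein dropped over 30%, and reduced phagocytosis when below 70% of the median above 5 µM.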

Key:
[1] = tested on: Human fetal astrocytes; assay: loss of total cells relative to no-compound high-control median (toxicity); higher = more toxic (fewer cells); conditions: 24 h
[2] = tested on: Human fetal astrocytes; assay: synaptosome phagocytosis (pHrodo/calcein intensity ratio) relative to plate median of data wells; higher = more phagocytosis; conditions: 24 h

| SMILES | loss of total cells ([1]; 1.39 µM) | loss of total cells ([1]; 2.78 µM) | loss of total cells ([1]; 5.56 µM) | loss of total cells ([1]; 11.11 µM) | loss of total cells ([1]; 22.22 µM) | synaptosome phagocytosis ([2]; 1.39 µM) | synaptosome phagocytosis ([2]; 2.78 µM) | synaptosome phagocytosis ([2]; 5.56 µM) | synaptosome phagocytosis ([2]; 11.11 µM) | synaptosome phagocytosis ([2]; 22.22 µM) |
| --- | --- | --- | --- | --- | --- | --- | --- | --- | --- | --- |
| CN(C)/N=N/c1nc[nH]c1C(N)=O [Dacarbazine DIC DTIC DTIE ICDT ICDMT DeticeneDTIC-Dome] | 4.5% | -35.6% | -15.3% | -15.3% | -14.9% | 89.4% | 118% | 100% | 98% | 108% |
| COc1ccc2cc1Oc1ccc(cc1)C[C@H]1c3cc(c(OC)cc3CCN1C)Oc1c(OC)c(OC)cc3c1[C@H](C2)N(C)CC3 | 4.9% | -11.9% | 11% | 31.1% | 17.8% | 130% | 106% | 124% | 107% | 138% |
| O=C(O[C@@H]1Cc2c(O)cc(O)cc2O[C@@H]1c1cc(O)c(O)c(O)c1-c1c([C@H]2Oc3cc(O)cc(O)c3C[C@H]2OC(=O)c2cc(O)c(O)c(O)c2)cc(O)c(O)c1O)c1cc(O)c(O)c(O)c1 | 6.9% | 8% | 32.8% | 23.2% | 43.3% | 127% | 112% | 105% | 107% | 165% |
| CC(=O)N[C@@H](CS)C(=O)O [N-Acetyl-L-Cysteine] | -12.4% | 3.4% | 2.1% | -19.5% | 12.5% | 48.8% | 81.7% | 108% | 109% | 82.4% |
| CN(C)c1ccc(O)c2c1C[C@H]1C[C@H]3[C@H](N(C)C)C(=O)C(C(N)=O)=C(O)[C@@]3(O)C(=O)C1=C2O | 0% | -4.6% | 5.1% | 23.4% | 8.5% | 114% | 109% | 107% | 87.4% | 110% |
| COC(=O)[C@@H]1OC(=O)C2OC23[C@@]1(C)CCC1[C@]2(C)C(C[C@@H](O)[C@]13C)C(C)(C)[C@H](OC(C)=O)C[C@@H]2OC(C)=O (stereo not given in full) | -11.2% | 2.7% | 27.5% | 1.9% | 4.1% | 93.4% | 112% | 133% | 114% | 129% |
| COc1ccc(C(=O)c2ccccc2)c(O)c1O | -15.6% | 6.6% | 35.9% | 16.8% | 40.4% | 81.1% | 73.7% | 143% | 98.2% | 125% |
| NS(=O)(=O)c1cc2c(cc1C(F)(F)F)NCNS2(=O)=O | 18.1% | -22.7% | 0% | 16.4% | 34.3% | 106% | 135% | 122% | 102% | 125% |
| CC(=O)Oc1ccc2c(c1)CC[C@@H]1[C@@H]2CC[C@]2(C)[C@@H](O)CC[C@@H]12 | 0.8% | -10.1% | 13.5% | 15.6% | 19.8% | 100% | 116% | 116% | 93.1% | 99.4% |
| N=C(N)N | 19.1% | 4.7% | 0.7% | 2.9% | 1.5% | 122% | 106% | 98.5% | 96.6% | 139% |
| CC(=O)OCC(=O)[C@@]1(OC(C)=O)[C@@H](C)C[C@H]2[C@@H]3C[C@H](F)C4=CC(=O)C=C[C@]4(C)[C@@]3(F)[C@@H](O)C[C@@]21C | -9% | -10.5% | -2.9% | -11.3% | 6.8% | 84.1% | 90.6% | 94.1% | 98.9% | 124% |
| c1ccc2[nH]c(-c3cscn3)nc2c1 | 7.4% | 16.6% | -14.6% | 4.9% | 2.7% | 94.3% | 69.1% | 118% | 111% | 114% |
| COC(=O)C[C@H]1C(C)(C)C(=O)[C@@H]2CC3=C(CC[C@]4(C)C3=CC(=O)O[C@H]4c3ccoc3)[C@@]1(C)C2=O | -4% | -1.3% | 36.6% | -3.2% | 5.6% | 120% | 86.5% | 120% | 108% | 123% |
| CC(=O)Oc1cc(OC(C)=O)c2c(c1)O[C@H](c1ccc(OC(C)=O)c(OC(C)=O)c1)[C@@H](OC(C)=O)C2 | -27.2% | -10% | -16.8% | 14.2% | 24.8% | 81.7% | 123% | 94.1% | 91% | 117% |
| C=CCSCC(N)C(=O)O (stereo not given) | 3.3% | -1.1% | -1.5% | 11.5% | 15.6% | 113% | 100% | 84.1% | 123% | 81% |
| COc1cccc(OC)c1C(=O)N[C@@H]1C(=O)N2[C@@H]1SC(C)(C)[C@@H]2C(=O)O | 8% | -20% | -13.9% | -0.3% | 55% | 71.8% | 118% | 92.4% | 117% | 122% |
| Cc1cc(O)c(C=O)c2c1C(=O)Oc1c(C)c(O)c3c(c1O2)C(O)OC3=O (stereo not given) | 19.9% | 22.7% | 30.4% | -2.1% | 14.4% | 109% | 103% | 136% | 87.7% | 126% |
| CC1CCC(C(C)C)C(O)C1 (stereo not given) | -29% | -3.2% | -11.8% | 32.5% | -7.2% | 91.5% | 119% | 89% | 128% | 106% |
| CN(CCOc1ccc(CC2SC(=O)NC2=O)cc1)c1ccccn1 (stereo not given) | -5.8% | -8.2% | 15.9% | -18% | 8.5% | 90.7% | 111% | 104% | 122% | 110% |
| CCCCC(CC)COC(=O)c1ccccc1O (stereo not given) | -19.9% | 4.7% | 28.2% | -6.5% | 9.3% | 101% | 108% | 116% | 102% | 87.7% |

Compounds listed so far containing fluorine:

| SMILES | loss of total cells ([1]; 1.39 µM) | loss of total cells ([1]; 2.78 µM) | loss of total cells ([1]; 5.56 µM) | loss of total cells ([1]; 11.11 µM) | loss of total cells ([1]; 22.22 µM) | synaptosome phagocytosis ([2]; 1.39 µM) | synaptosome phagocytosis ([2]; 2.78 µM) | synaptosome phagocytosis ([2]; 5.56 µM) | synaptosome phagocytosis ([2]; 11.11 µM) | synaptosome phagocytosis ([2]; 22.22 µM) |
| --- | --- | --- | --- | --- | --- | --- | --- | --- | --- | --- |
| NS(=O)(=O)c1cc2c(cc1C(F)(F)F)NCNS2(=O)=O | 18.1% | -22.7% | 0% | 16.4% | 34.3% | 106% | 135% | 122% | 102% | 125% |
| CC(=O)OCC(=O)[C@@]1(OC(C)=O)[C@@H](C)C[C@H]2[C@@H]3C[C@H](F)C4=CC(=O)C=C[C@]4(C)[C@@]3(F)[C@@H](O)C[C@@]21C | -9% | -10.5% | -2.9% | -11.3% | 6.8% | 84.1% | 90.6% | 94.1% | 98.9% | 124% |

Next part.

| SMILES | loss of total cells ([1]; 1.39 µM) | loss of total cells ([1]; 2.78 µM) | loss of total cells ([1]; 5.56 µM) | loss of total cells ([1]; 11.11 µM) | loss of total cells ([1]; 22.22 µM) | synaptosome phagocytosis ([2]; 1.39 µM) | synaptosome phagocytosis ([2]; 2.78 µM) | synaptosome phagocytosis ([2]; 5.56 µM) | synaptosome phagocytosis ([2]; 11.11 µM) | synaptosome phagocytosis ([2]; 22.22 µM) |
| --- | --- | --- | --- | --- | --- | --- | --- | --- | --- | --- |
| CC[C@H]1OC(=O)[C@H](C)[C@@H](O[C@H]2C[C@@](C)(OC)[C@@H](O)[C@H](C)O2)[C@H](C)[C@@H](O[C@@H]2O[C@H](C)C[C@H](N(C)C)[C@H]2O)[C@](C)(OC)C[C@@H](C)C(=O)[C@H](C)[C@@H](O)[C@]1(C)O | -4.1% | -5.8% | 18.3% | -14.1% | 18.7% | 115% | 115% | 128% | 114% | 111% |
| CC(=O)OCC(=O)[C@@]1(O)CC[C@H]2[C@@H]3CCC4=CC(=O)CC[C@]4(C)[C@@]3(F)[C@@H](O)C[C@@]21C | 3.3% | -10.5% | -30.7% | -9.5% | -10% | 105% | 90.7% | 111% | 128% | 111% |
| O=C1[C@H](CC[C@H](O)c2ccc(F)cc2)[C@@H](c2ccc(O)cc2)N1c1ccc(F)cc1 | -37.9% | -16.7% | -0.6% | 5.6% | 4% | 127% | 96.5% | 95.6% | 98.5% | 105% |
| OCC(O)CN1CCN(c2ccccc2)CC1 (stereo not given) | 6.1% | 12.6% | 15.9% | -11.3% | 4.5% | 91.1% | 107% | 105% | 85.4% | 99.4% |
| CC(=O)NS(=O)(=O)c1ccc(N)cc1 | 6.2% | -24.1% | -15.3% | -7.8% | 24.6% | 118% | 128% | 110% | 108% | 125% |
| COC(=O)[C@H]1[C@H]2C[C@H]3c4[nH]c5ccccc5c4CCN3C[C@H]2CC[C@@H]1O [Rauwolscine hydrochloride] | -16.4% | 0.4% | -3.7% | 12.8% | 4.4% | 148% | 91.9% | 124% | 109% | 81.5% |
| OCCN1C[C@H](O)[C@@H](O)[C@H](O)[C@H]1CO | 21% | -5.6% | 11.8% | -4.9% | 4% | 136% | 105% | 107% | 77.8% | 110% |
| CCCCCCCCCCCCC(C(=O)O)C(C)C(=O)O (stereo not given) | -14.9% | 9.3% | -10.7% | 6.5% | 1.1% | 115% | 94.3% | 105% | 85.8% | 97.8% |
| COc1ccc(C(C)=O)c(O)c1 | -22.1% | 6.1% | -11.7% | 12.8% | 2.2% | 86.3% | 120% | 82.1% | 118% | 124% |
| COc1c2ccoc2cc2oc(=O)ccc12 | 7.6% | 18.4% | 17.4% | 6.3% | 1.5% | 123% | 111% | 110% | 70% | 79% |
| CC(Oc1ccccc1)C(=O)N[C@@H]1C(=O)N2[C@@H]1SC(C)(C)[C@@H]2C(=O)O (stereo not given in full) | -8.6% | -47.8% | -36.2% | -15.9% | 34.3% | 115% | 121% | 138% | 98.9% | 140% |
| Cc1cn([C@H]2C[C@H](N=[N+]=[N-])[C@@H](CO)O2)c(=O)[nH]c1=O [AZT Zidovudine Azidothymidine 3'-Azido-3'-deoxythymidine] | -0.8% | -22.2% | 0% | 44.3% | -5.9% | 129% | 103% | 130% | 169% | 124% |
| CCOc1ccc(Cc2nccc3cc(OCC)c(OCC)cc23)cc1OCC | 11.2% | 12.6% | 25.4% | 14.6% | 10.6% | 86.8% | 80.7% | 143% | 100% | 86.2% |
| CC(=O)O[C@@H]1CC2C(C)(C)C(=O)CC[C@]2(C)C2CC[C@]3(C)C(=CC(=O)O[C@H]3c3ccoc3)[C@@]21C (stereo not given in full) | 9.7% | 3.2% | 11.6% | -16.3% | 0% | 77.1% | 130% | 93.7% | 92.5% | 126% |
| COC(=O)C[C@H]1C(C)(C)[C@@H](OC(C)=O)[C@@H]2CC3C4CC(=O)O[C@@H](c5ccoc5)[C@]4(C)CCC3[C@@]1(C)C2=O (stereo not given in full) | 1.8% | 15.9% | -7.6% | 35.5% | -17.4% | 106% | 113% | 97.2% | 99.7% | 97% |
| COC1=C(OC)C(=O)C(C/C=C(\C)CC/C=C(\C)CC/C=C(\C)CC/C=C(\C)CC/C=C(\C)CC/C=C(\C)CC/C=C(\C)CC/C=C(\C)CC/C=C(\C)CCC=C(C)C)=C(C)C1=O | -25.4% | 0.4% | -5.9% | 8.8% | 8.9% | 94% | 78.4% | 102% | 102% | 126% |
| Cc1cccc(C)c1NC(=O)C1CCCCN1C (stereo not given) | -14.1% | -13.1% | 1.5% | -11.7% | -6.8% | 98.7% | 92.7% | 118% | 128% | 114% |
| N[C@@H](CCC(=O)N[C@@H](CSC(CC(=O)O)C(=O)O)C(=O)NCC(=O)O)C(=O)O (stereo not given in full) | 6.1% | 6.9% | 2.9% | 14.6% | -0.8% | 148% | 104% | 105% | 119% | 119% |
| COc1ccc2c(c1)OC[C@@H](Cc1ccc(OC)c(OC)c1)[C@@H]2O | -9.8% | -4% | 13.2% | 21.6% | 11.1% | 104% | 97.7% | 127% | 135% | 139% |
